# Literature values, collected in PMC7175181 (Biomolecules, 2020).
# Test system: ACE
# Settings: ref [52],[53]; cited from earlier work
structure (smiles),measurement,value
NCCCC[C@H](N[C@@H](CCc1ccccc1)C(=O)O)C(=O)N1CCC[C@H]1C(=O)O [lisinopril],ACE residues interacting with inhibitor,"Glu162, His353, Ala354, Glu384, His387, Glu411, Lys511, His513, Tyr520, and Tyr523"
